Measurements reported in patent publication US11655235B2, “Pyrrolidine and piperidine compounds” (YUHAN CORPORATION, priority 2019, dated 2023).

Amino acid sequences for entries named in this document (tags omitted).
UniProt P27487, whole entry: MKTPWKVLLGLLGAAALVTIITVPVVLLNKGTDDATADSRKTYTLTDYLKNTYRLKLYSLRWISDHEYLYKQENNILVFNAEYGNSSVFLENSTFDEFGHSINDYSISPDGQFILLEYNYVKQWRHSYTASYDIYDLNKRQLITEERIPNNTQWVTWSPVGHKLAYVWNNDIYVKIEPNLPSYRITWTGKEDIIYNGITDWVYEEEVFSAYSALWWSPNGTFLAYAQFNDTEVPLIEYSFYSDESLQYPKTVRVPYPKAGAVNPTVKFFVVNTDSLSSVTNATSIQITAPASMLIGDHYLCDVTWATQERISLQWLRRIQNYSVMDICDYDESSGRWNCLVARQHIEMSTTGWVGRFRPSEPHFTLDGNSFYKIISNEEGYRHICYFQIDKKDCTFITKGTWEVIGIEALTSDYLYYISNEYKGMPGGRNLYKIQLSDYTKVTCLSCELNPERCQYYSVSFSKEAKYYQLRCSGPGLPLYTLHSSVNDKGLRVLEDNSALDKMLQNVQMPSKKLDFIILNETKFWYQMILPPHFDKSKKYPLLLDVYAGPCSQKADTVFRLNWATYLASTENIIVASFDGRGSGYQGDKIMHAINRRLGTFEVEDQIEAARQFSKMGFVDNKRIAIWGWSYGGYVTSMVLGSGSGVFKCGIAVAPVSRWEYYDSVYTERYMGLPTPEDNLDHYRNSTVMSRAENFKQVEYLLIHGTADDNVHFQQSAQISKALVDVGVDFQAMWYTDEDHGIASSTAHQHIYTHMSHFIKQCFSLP
UniProt Q12884, whole entry: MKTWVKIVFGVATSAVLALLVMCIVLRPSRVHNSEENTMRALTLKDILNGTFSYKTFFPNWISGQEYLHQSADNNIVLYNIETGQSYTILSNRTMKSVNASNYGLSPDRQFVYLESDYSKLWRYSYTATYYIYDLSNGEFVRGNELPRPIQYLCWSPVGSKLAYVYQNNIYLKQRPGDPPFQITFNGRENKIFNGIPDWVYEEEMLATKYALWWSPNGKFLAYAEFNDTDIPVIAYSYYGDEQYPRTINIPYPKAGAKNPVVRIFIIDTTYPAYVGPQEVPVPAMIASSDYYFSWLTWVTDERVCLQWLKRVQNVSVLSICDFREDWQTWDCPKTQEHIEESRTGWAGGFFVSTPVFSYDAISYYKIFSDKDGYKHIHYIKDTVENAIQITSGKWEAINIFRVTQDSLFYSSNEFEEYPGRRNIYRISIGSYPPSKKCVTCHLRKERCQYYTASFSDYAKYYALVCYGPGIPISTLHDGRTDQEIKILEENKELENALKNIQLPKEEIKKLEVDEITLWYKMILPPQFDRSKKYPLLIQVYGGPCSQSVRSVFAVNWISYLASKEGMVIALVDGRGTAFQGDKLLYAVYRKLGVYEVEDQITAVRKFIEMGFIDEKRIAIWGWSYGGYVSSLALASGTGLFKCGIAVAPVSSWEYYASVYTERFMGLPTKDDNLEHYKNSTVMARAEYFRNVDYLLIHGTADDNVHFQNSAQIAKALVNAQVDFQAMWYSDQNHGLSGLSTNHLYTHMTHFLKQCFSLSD

How the values were obtained:
DPP4 = DPP4 (Homo sapiens, UniProt P27487); assay: DPP4 inhibition, fluorogenic substrate H-Gly-Pro-AMC; format: biochemical; conditions: read-out: Inhibitory Activity (IC50, nM) hDPP4
Recombinant human FAP = Recombinant human FAP (Homo sapiens, UniProt Q12884); assay: FAP FRET assay, FGF21-sequence FRET peptide substrate; format: biochemical; conditions: read-out: Inhibitory Activity (IC50, nM) hFAP FRET; FRET peptide with human FGF21 sequence, 6 μM, 37° C.

SMILES: N#C[C@@H]1C[C@H](F)CN1C(=O)CN1CCC(Nc2cnc3ccccc3c2)CC1
- IC50 (DPP4): ≥ 10000 nM
- IC50 (Recombinant human FAP): 27.6 nM

Structures were worked out from names or drawings and are uncertain.
